# According to PubChem BioAssay AID504467 (National Center for Advancing Translational Sciences (NCATS), 2011):
# Among all 330,000 compounds or so, about 7,700 (2.3%) were called active. Inconclusive means that the source gave no clear call. Such entries were picked first, then a sample of the others. Calls come from the whole dose curve; as a rule, active = well fitted inhibition curve with a large enough effect; inconclusive = small, poorly fitted or top-dose-only effect, or effect the other way; inactive = flat fitted curve, though single readings scatter. Where the call is inconclusive, the potency comes from a doubtful curve fit.
# Experiment: qHTS screen for small molecules that inhibit ELG1-dependent DNA repair in human embryonic kidney (HEK293T) cells expressing luciferase-tagged ELG1; note: nearly all actives have a fitted effect of over 55% in size
# Settings: HEK293T ELG1-luciferase reporter, luminescence, 16 h, DNA damage induced by 5-fluorouridine; activity change, negative = inhibition: at 46.1 µM (top of the series)
# Outline: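 In this reporter screen, reduction of luminescence relative to DMSO vehicle indicated activity. Compounds and 5-fluorouridine were added together to 2,000 cells per well, incubated for 16 hr at 37 °C, then developed with ONE-Glo.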
# % is set by controls: 0 for no effect and ±100 for the full control effect; potency is the fitted concentration of half-maximal effect.
Structure (SMILES),Potency,"activity change, negative = inhibition"
CCN(CC)c1nc2ccccc2nc1C(C#N)C(=O)NCCCOC (stereo not drawn),"inconclusive: 25.9 µM [inhibitor, single point]",–
COc1cc(C(=O)N/N=C/c2coc3ccc(Cl)cc3c2=O)ccc1O,"inconclusive: 4.61 µM [inhibitor, single point]",–
Cc1ccc(NC(=O)C2(NC(=O)c3ccccn3)CCCCC2)cc1Br,–,inactive: 1.16%
COc1ccccc1-c1cn[nH]c1-c1ccc(OCc2ccc([N+](=O)[O-])cc2)cc1O,"inconclusive: 1.03 µM [inhibitor, partial curve]",–
Nn1c(SCc2ccccc2)nc2c(cnn2-c2ccccc2)c1=O,"inconclusive: 4.61 µM [activator, partial curve]",–
Cc1noc(C)c1COC(=O)c1csc2c1CCC(C)C2 (stereo not drawn),"inconclusive: 16.4 µM [activator, single point]",–
Cc1onc(-c2ccccc2Cl)c1C(=O)Nc1nc2ccc(S(C)(=O)=O)cc2s1,"inconclusive: 16.4 µM [inhibitor, partial curve]",–
Cc1ccc(S(=O)(=O)N2CCN(Cc3cc(=O)n4ccccc4n3)CC2)cc1C,–,inactive: -4.87%
COc1ccc([C@H]2CC(=O)C=C(c3cc(OC)ccc3OC)C2)cc1,"inconclusive: 20.6 µM [inhibitor, partial curve, poor fit]",–
COc1ccc(-c2noc(CCCCC(=O)N3CCN(c4cc(C)ccc4C)CC3)n2)cc1,"inconclusive: 2.31 µM [inhibitor, partial curve]",–
Cc1cc(Nc2ccc(O)cc2)n2c(nc3ccccc32)c1C#N,–,inactive: -6.55%
CCn1c(CCCCc2n[nH]c(=S)n2CC)n[nH]c1=S,"inconclusive: 29.1 µM [inhibitor, partial curve, poor fit]",–
Cc1cccc(OCCCC(=O)NC(C)c2ccccc2)c1 (stereo not drawn),–,inactive: 3.75%
COC(=O)[C@@]1(Cc2ccc(F)cc2)[C@H]2c3cc(C(=O)N(C)C)n(Cc4ccc(OC)c(OC)c4)c3C[C@H]2CN1C(=O)c1ccccc1,–,inactive: -6.65%
Cc1ccc(NC(=O)CN2CCc3cc4c(cc3C2C)OCCCO4)cc1C (stereo not drawn),"inconclusive: 18.3 µM [inhibitor, partial curve]",–
Cc1ccc(-n2ncc3c(=O)[nH]c(SCC(=O)N4CCCc5ccccc54)nc32)cc1,"inconclusive: 29.1 µM [inhibitor, single point]",–
N#C/C(=C\c1ccc(O)c(O)c1)C(=O)Nc1ccccc1,"inconclusive: 5.62 µM [activator, partial curve, poor fit]",–
Brc1ccc(C2=Nc3cccc4cccc(c34)N2)o1,"inconclusive: 8.2 µM [activator, partial curve, poor fit]",–
CC(=O)Nc1ccc(-c2nnc(SCc3ccccc3C#N)n2C)cc1,"inconclusive: 14.6 µM [activator, partial curve, poor fit]",–
Cc1cccc(-c2nc(N)nc(N)n2)c1,"inconclusive: 20.6 µM [activator, partial curve]",–
O=C(Cc1c[nH]c2ccccc12)N1CCc2ccccc21,"inconclusive: 6.51 µM [activator, partial curve, poor fit]",–
C/C(=N\NC(=S)NC(C)C)c1ccc(C(C)(C)C)cc1,"inconclusive: 29.1 µM [inhibitor, single point]",–
Brc1ccccc1OCCCCCN1CCOCC1,"inconclusive: 29.1 µM [activator, single point]",–

Structure (SMILES),Potency,"activity change, negative = inhibition"
COc1ccc(C(=O)Nc2ccc(S(=O)(=O)N3CCCC3)cc2)cc1,"inconclusive: 23.1 µM [inhibitor, partial curve, poor fit]",–
Cc1ccc(C)c(NC(=O)CSc2nnc(-c3ccncc3)o2)c1,"inconclusive: 23.1 µM [activator, single point]",–
Cc1cc(C(=O)c2cnc(/N=C/N(C)C)s2)c(F)cc1Cl,–,inactive: 0%
COc1ccccc1C(=O)Nc1ccnn1C1CCN(Cc2cnc(N(C)C)s2)CC1,–,inactive: -11%
COc1ccc2[nH]cc(CCNC(=S)NC3CCCC3)c2c1,–,inactive: -12.3%
CCOC(=O)c1cc2cc3ccccc3cc2[nH]1,"inconclusive: 6.51 µM [activator, partial curve]",–
CC(=O)Nc1cccc(-c2cn3ccc(C)cc3n2)c1,"inconclusive: 8.2 µM [activator, partial curve]",–
CCOC(=O)C1(CCCc2ccccc2)CCN(C(=O)C2=C(C)OCCO2)CC1,–,inactive: 3.14%
O=[N+]([O-])c1ccc(Cl)cc1Sc1cccc2cccnc12,–,inactive: 12%
COC(=O)c1ccc(COc2ccccc2/C=N/Nc2cccc(C(=O)O)c2)cc1,"inconclusive: 18.3 µM [activator, partial curve]",–
O=C(COC(=O)c1ccc(S(=O)(=O)NCc2ccco2)cc1)Nc1ccccc1,–,inactive: 18.2%
NC(=O)c1nc(C(=O)N2CCCCC2)c2ccccc2n1,–,inactive: 18.3%
O=C(CCCN1C(=O)c2cccc3cccc(c23)C1=O)N1CCN(c2ncccn2)CC1,"inconclusive: 29.1 µM [inhibitor, single point]",–
O=[N+]([O-])c1ccc(Nc2nc(NCCO)nc(N3CCCC3)n2)cc1,"inconclusive: 16.4 µM [inhibitor, partial curve]",–
C=CCn1c(=O)c2c(nc(Br)n2Cc2ccccc2Cl)n(C)c1=O,"inconclusive: 18.4 µM [inhibitor, partial curve]",–
COC(=O)/C(=N/Nc1ccccc1)N1CCCc2ccccc21,–,inactive: 4.98%
Cc1ccc(NC(=O)C2CCCN(S(=O)(=O)c3cccnc3)C2)cc1C (stereo not drawn),"inconclusive: 16.4 µM [inhibitor, partial curve, poor fit]",–
O=C(O)c1ccccc1-c1cn2cc(Cl)ccc2n1,"inconclusive: 29.1 µM [activator, single point]",–
Cc1ccc(SCC(=O)OCC(=O)N2CCN(C(=O)c3ccco3)CC2)c(C)c1,"inconclusive: 0.146 µM [activator, partial curve, poor fit]",–
Cc1ccnc(NC(=S)NC(=O)/C=C/c2ccco2)c1,"inconclusive: 16.4 µM [activator, partial curve]",–
CCOC(=O)N1CCN(C(=O)CCl)CC1,–,inactive: 13.7%
CCN(CC)C(=O)[C@H]1C[C@H](CC(=O)NC(C)(C)C)C(=O)N2CCc3c([nH]c4cc(-c5ccco5)ccc34)[C@]12C,–,inactive: -28%
CC1(c2ccc3ccccc3c2)NC(=O)N(CC(=O)N2CCC(C(N)=O)CC2)C1=O (stereo not drawn),–,inactive: 0.179%

# Nothing new here: 21 of the compounds above.
Structure (SMILES),Potency,"activity change, negative = inhibition"
Cc1ccc(C)c(NC(=O)CSc2nnc(-c3ccncc3)o2)c1,"inconclusive: 23.1 µM [activator, single point]",–
Cc1cc(C(=O)c2cnc(/N=C/N(C)C)s2)c(F)cc1Cl,–,inactive: 0%
COc1ccccc1C(=O)Nc1ccnn1C1CCN(Cc2cnc(N(C)C)s2)CC1,–,inactive: -11%
COc1ccc2[nH]cc(CCNC(=S)NC3CCCC3)c2c1,–,inactive: -12.3%
CCOC(=O)c1cc2cc3ccccc3cc2[nH]1,"inconclusive: 6.51 µM [activator, partial curve]",–
CC(=O)Nc1cccc(-c2cn3ccc(C)cc3n2)c1,"inconclusive: 8.2 µM [activator, partial curve]",–
CCOC(=O)C1(CCCc2ccccc2)CCN(C(=O)C2=C(C)OCCO2)CC1,–,inactive: 3.14%
O=[N+]([O-])c1ccc(Cl)cc1Sc1cccc2cccnc12,–,inactive: 12%
COC(=O)c1ccc(COc2ccccc2/C=N/Nc2cccc(C(=O)O)c2)cc1,"inconclusive: 18.3 µM [activator, partial curve]",–
O=C(COC(=O)c1ccc(S(=O)(=O)NCc2ccco2)cc1)Nc1ccccc1,–,inactive: 18.2%
NC(=O)c1nc(C(=O)N2CCCCC2)c2ccccc2n1,–,inactive: 18.3%
O=C(CCCN1C(=O)c2cccc3cccc(c23)C1=O)N1CCN(c2ncccn2)CC1,"inconclusive: 29.1 µM [inhibitor, single point]",–
O=[N+]([O-])c1ccc(Nc2nc(NCCO)nc(N3CCCC3)n2)cc1,"inconclusive: 16.4 µM [inhibitor, partial curve]",–
C=CCn1c(=O)c2c(nc(Br)n2Cc2ccccc2Cl)n(C)c1=O,"inconclusive: 18.4 µM [inhibitor, partial curve]",–
COC(=O)/C(=N/Nc1ccccc1)N1CCCc2ccccc21,–,inactive: 4.98%
Cc1ccc(NC(=O)C2CCCN(S(=O)(=O)c3cccnc3)C2)cc1C (stereo not drawn),"inconclusive: 16.4 µM [inhibitor, partial curve, poor fit]",–
O=C(O)c1ccccc1-c1cn2cc(Cl)ccc2n1,"inconclusive: 29.1 µM [activator, single point]",–
Cc1ccc(SCC(=O)OCC(=O)N2CCN(C(=O)c3ccco3)CC2)c(C)c1,"inconclusive: 0.146 µM [activator, partial curve, poor fit]",–
Cc1ccnc(NC(=S)NC(=O)/C=C/c2ccco2)c1,"inconclusive: 16.4 µM [activator, partial curve]",–
CCOC(=O)N1CCN(C(=O)CCl)CC1,–,inactive: 13.7%
CCN(CC)C(=O)[C@H]1C[C@H](CC(=O)NC(C)(C)C)C(=O)N2CCc3c([nH]c4cc(-c5ccco5)ccc34)[C@]12C,–,inactive: -28%

# (more compounds)

Structure (SMILES),Potency,"activity change, negative = inhibition"
CCc1ccc(C(=O)/C=C/Nc2ccc(S(=O)(=O)Nc3cnc4ccccc4n3)cc2)cc1,"inconclusive: 0.366 µM [activator, full curve, poor fit]",–
COC(=O)CCC(=O)OC,–,inactive: 0.936%
Cc1ccc(C(=O)COC(=O)COc2ccc(C)c(C)c2)cc1,–,inactive: 15.2%
Clc1c(-c2ccccc2)nnn1-c1ccccc1,"inconclusive: 5.8 µM [activator, partial curve]",–
CCN(CC)C(=O)c1[nH]cnc1C(=O)Nc1ccon1,"inconclusive: 25.9 µM [activator, single point]",–
COc1ccc(NC(=O)c2cnn(-c3ccccc3)c2C)cc1,–,inconclusive: 278% [activator]
Cn1nc(C(=O)N2CCc3ccccc32)c2ccccc2c1=O,"inconclusive: 20.6 µM [activator, partial curve, poor fit]",–
Cc1ccc(OC(=O)C2c3ccccc3Oc3ccccc32)cc1C,–,inactive: 0.386%
Cc1ccc(/C=C/C(=O)Nc2nnc(C)s2)o1,"inconclusive: 23.1 µM [activator, single point]",–
CC(OC(=O)CN(C)S(=O)(=O)c1ccc(Cl)cc1)C(=O)Nc1ccc(N2CCOCC2)cc1 (stereo not drawn),"inconclusive: 14.6 µM [activator, partial curve, poor fit]",–
COc1cccc(NC(=S)NN2CCN(C)CC2)c1,"inconclusive: 20 µM [activator, single point]",–
COc1cc(C(=O)N/N=C2\CCS(=O)(=O)c3ccc(F)cc32)cc(OC)c1OC,"inconclusive: 29.1 µM [inhibitor, single point]",–
O=C(CSc1ccccc1)Nc1ccc(N2CCOCC2)cc1,"inconclusive: 20.6 µM [activator, partial curve]",–
O=S(=O)(N[C@H](CO)Cc1ccccc1)c1ccc(Br)cc1F,"inconclusive: 29.1 µM [activator, partial curve, poor fit]",–
COc1ccc(OC)c(N(CC(=O)NC2CCCC2)S(=O)(=O)c2ccc(OC)c(OC)c2)c1,"inconclusive: 4.11 µM [inhibitor, partial curve, poor fit]",–
CC(C)/C=N/Nc1nc2c(c(=O)n(C)c(=O)n2C)n1C,"inconclusive: 16.4 µM [inhibitor, single point]",–
COC(=O)N/N=C/c1cccc(OCCSc2ccc(Cl)cc2)c1,–,inactive: -0.303%
CS(=O)(=O)N(Cc1ccc(Cl)cc1)c1ccc(C(=O)NCCSCc2ccco2)cc1,"inconclusive: 10.3 µM [inhibitor, partial curve, poor fit]",–
CCOc1ccc(/C=C/C(=O)CCC(=O)O)cc1,"inconclusive: 9.2 µM [activator, partial curve]",–
Cc1cccc(-n2nnc(C(=O)NCc3ccccn3)c2N)c1,"inconclusive: 25.9 µM [activator, partial curve, poor fit]",–
O=C(CSc1ncnc2nc[nH]c12)c1ccccc1,"inconclusive: 13 µM [activator, partial curve]",–
CCC(CC)NC(=O)COC(=O)c1ccc(OCc2ccc(C(C)=O)cc2OC)c(OC)c1,"inconclusive: 23.1 µM [inhibitor, partial curve, poor fit]",–
